Test results as given in patent publication US9399666B2, “Inhibiting interaction between the HIF-1ALPHA and p300/CBP with hydrogen bond surrogate-based helices” (New York University, priority 2008, dated 2016).
Part of at least one peptide drawing is inferred or uncertain, most often the ends.

Sequences of proteins named here, by UniProt entry; tags and fusion partners are left off.
UniProt Q09472, whole entry: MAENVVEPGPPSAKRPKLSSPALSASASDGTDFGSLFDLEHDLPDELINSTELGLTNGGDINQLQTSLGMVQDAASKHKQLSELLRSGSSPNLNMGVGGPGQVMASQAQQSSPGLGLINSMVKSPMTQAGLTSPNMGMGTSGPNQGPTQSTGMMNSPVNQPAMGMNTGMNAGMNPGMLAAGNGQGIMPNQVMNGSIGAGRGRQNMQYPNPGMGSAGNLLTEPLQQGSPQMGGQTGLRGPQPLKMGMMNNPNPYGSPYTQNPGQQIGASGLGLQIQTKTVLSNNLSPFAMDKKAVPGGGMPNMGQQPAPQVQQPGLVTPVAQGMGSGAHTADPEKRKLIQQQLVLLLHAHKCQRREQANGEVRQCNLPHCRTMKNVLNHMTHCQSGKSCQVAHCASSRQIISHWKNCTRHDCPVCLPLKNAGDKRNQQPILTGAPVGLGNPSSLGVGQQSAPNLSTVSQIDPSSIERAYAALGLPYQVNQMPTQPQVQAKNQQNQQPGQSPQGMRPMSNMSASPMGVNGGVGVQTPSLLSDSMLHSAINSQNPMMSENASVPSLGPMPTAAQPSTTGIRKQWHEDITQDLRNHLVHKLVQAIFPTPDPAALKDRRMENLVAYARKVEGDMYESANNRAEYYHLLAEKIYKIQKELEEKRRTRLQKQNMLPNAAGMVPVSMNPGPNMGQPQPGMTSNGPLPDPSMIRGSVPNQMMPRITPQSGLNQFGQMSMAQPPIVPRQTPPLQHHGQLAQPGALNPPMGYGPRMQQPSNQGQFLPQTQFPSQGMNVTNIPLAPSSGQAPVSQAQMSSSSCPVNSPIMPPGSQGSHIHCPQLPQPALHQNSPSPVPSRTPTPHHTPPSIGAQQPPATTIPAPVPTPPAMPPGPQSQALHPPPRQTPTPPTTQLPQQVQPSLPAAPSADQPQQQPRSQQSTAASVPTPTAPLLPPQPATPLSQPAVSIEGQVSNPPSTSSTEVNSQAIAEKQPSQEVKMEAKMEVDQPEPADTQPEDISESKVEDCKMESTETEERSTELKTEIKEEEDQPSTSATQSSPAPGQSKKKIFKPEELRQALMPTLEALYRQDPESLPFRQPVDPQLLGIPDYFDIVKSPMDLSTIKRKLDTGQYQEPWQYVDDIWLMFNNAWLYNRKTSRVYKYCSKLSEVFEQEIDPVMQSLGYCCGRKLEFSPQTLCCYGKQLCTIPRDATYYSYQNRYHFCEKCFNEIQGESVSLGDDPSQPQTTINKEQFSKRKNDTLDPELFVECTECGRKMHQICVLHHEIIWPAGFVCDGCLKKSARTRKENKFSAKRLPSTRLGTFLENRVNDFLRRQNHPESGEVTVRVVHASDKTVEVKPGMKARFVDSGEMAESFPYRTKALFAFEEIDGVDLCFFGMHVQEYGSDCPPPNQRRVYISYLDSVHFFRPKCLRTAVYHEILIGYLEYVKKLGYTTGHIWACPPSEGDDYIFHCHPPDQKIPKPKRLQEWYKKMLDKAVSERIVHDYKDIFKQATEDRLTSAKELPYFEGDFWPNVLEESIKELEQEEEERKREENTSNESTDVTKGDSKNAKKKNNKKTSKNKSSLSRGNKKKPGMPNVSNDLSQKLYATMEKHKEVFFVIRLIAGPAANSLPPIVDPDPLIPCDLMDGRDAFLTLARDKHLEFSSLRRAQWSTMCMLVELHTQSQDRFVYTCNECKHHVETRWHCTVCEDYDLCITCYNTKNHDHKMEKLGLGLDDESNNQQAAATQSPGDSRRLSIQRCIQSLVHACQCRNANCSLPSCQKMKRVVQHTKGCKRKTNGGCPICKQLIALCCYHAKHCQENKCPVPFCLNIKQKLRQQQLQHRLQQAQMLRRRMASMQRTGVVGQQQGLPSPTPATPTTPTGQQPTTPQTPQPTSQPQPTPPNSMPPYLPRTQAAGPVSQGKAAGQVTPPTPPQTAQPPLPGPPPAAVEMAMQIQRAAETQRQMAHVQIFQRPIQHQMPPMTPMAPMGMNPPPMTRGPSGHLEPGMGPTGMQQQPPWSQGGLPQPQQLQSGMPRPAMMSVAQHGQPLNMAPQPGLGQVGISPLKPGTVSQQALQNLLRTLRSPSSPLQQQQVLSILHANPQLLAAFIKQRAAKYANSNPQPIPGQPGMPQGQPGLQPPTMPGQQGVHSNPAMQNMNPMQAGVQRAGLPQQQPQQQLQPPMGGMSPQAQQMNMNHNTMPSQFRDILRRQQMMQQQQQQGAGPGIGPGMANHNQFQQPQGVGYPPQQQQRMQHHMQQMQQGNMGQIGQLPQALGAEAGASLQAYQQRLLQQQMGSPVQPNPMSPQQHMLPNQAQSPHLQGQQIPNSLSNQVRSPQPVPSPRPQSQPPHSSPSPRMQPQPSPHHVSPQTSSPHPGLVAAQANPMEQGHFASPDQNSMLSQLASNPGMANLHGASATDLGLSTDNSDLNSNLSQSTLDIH

Legend:
p300 = p300 (Homo sapiens, UniProt Q09472); assay: Affinity for p300 by isothermal titration calorimetry; type: binding; conditions: ITC
Description: (§1) Helix αA of HIF-1α C-TAD, shown in FIG. 1A and FIG. 1C, is critical for the interaction between the CH1 domain and HIF-1α, because mutation of its residues or hydroxylation of Asn803 is known to disrupt this complex and inhibit HIF-1α mediated transcription (Freedman et al., “Structural Basis for Recruitment of CBP/p300 by Hypoxia-inducible Factor-1α,” Proc. Nat'l Acad. Sci. USA 99:5367-72 (2002); Dames et al., “Structural Basis for Hif-1α/CBP Recognition in the Cellular Hypoxic Response,” Proc. Nat'1 Acad. Sci. USA 99:5271-6 (2002). Development of HBS helices as potential inhibitors of VEGF transcription was begun by mimicking the aA helix region of HIF-1. This helix consists of eight residues, […] (SEQ ID NO: 111), and features three residues, Asp-Cys-Glu, critical for binding with p300/CBP. Several linear peptides and their HBS α-helix analogs were designed to gauge the potential of these molecules to inhibit VEGF transcription in cell culture. […] The percent helicity of each peptide was determined using circular dichroism spectroscopy in 10 mM phosphate buffered saline as described in (Wang et al., “Evaluation of Biologically Relevant Short α-Helices Stabilized by a Main-chain Hydrogen-bond Surrogate,” J. Am. Chem. Soc. 128:9248-56 (2006)). The affinity of each peptide for p300 was measured by isothermal titration calorimetry analysis (Wiseman et al., “Rapid Measurement of Binding Constants and Heats of Binding Using a New Titration calorimeter,” Anal. Biochem. 179:131-7 (1989); Freire et al., “Isothermal Titration calorimetry,” Anal. Chem. 62:A950-A959 (1990); Chervenak & Toone, “Calorimetric Analysis of the Binding of Lectins with Overlapping Carhohydrate-binding Ligand Specificities,” Biochemistry 34:5685-95 (1995); Aki et al., “Competitive Binding of Drugs to the Multiple Binding Sites on Human Serum Albumin. A calorimetric Study,” J Thermal Anal. calorim. […] The ability of each peptide to downregulate VEGF transcription in cell culture was evaluated by […] quantitative RT-PCR, as described above. […]

[1] = Percent helicity by circular dichroism spectroscopy; type: physicochemical; conditions: 10 mM phosphate buffered saline
Description: as §1

MDA-MB-231-HRE-Luc cells = type: cell-based
Description: MDA-MB-231-HRE-Luc cells were maintained in high glucose Dulbecco's Modified Eagle's Medium (“DMEM”) supplemented with 10% fetal bovine serum and 0.4 g/L Geneticin (G418 sulfate, RPI Corporation). Cells were plated in 24-well dishes (BD Falcon) at a density of […] using 1 mL of a 6.5×10^4 cell/mL suspension. […] Cells were incubated for 6 hours at 37° C. in a humidified atmosphere with 5% CO2. Hypoxia was induced by adding desferoxamine mesylate (DFO, Sigma) to a final concentration of 300 μM, and cells were incubated for an additional 18 hours. Whole cell lysates were isolated by washing the cells twice with ice cold PBS and then adding 150 μL of Cell Culture Lysis Reagent (“CCLR,” Promega). Lysate was collected, centrifuged at 13,000 rpm at 4° C., aliquoted, and stored at −80° C. Luciferase assays were conducted according to the manufacturer's instructions (Promega) using a Turner TD-20e Luminometer. Relative light intensity measurements were normalized by performing a Bradford assay to determine the protein content of the lysate used in the luciferase assay. Briefly, 50 μL of cell lysate/luciferase assay reagent mix was added to 200 μL of Bradford reagent and 750 μL of Millipore water in a 1.5 mL cuvette. Protein standards were created in the range of 1 μg/mL to 10 μg/mL with the appropriate amount of a 1 mg/mL BSA solution. Absorbance was measured at 595 nm using a DU-800 spectrophotometer. The experiments were carried out in triplicate with the error bars calculated as standard error of the mean.

[2] = system: VEGF transcription in HeLa cells; assay: VEGF gene expression by real-time qRT-PCR; type: cell-based; conditions: FIG. 7
Description: Real-time qRT-PCR was used to determine the effect of HBS helices on the level of expression of VEGF and GLUT1 genes in HeLa and MCF-7 cells, both under normoxic and hypoxic conditions. For VEGF analysis, the forward primer 5′AGGCCAGCACATAGGAGAGA-3′ (SEQ ID NO: 105) and reverse primer 5′TTTCCCTTTCCTCGAACTGA-3′ (SEQ ID NO:106) were used to amplify a 104-bp fragment from the […] of the gene. For GLUT1 (SLC2A1) analysis, the following sequences were utilized to yield a product of 179 bp: forward sequence 5′-TAGAAACATGGTTTTGAAATGC-3′ (SEQ ID NO:107), reverse sequence 5′-GGTAACAGGGATCAAACAGATT-3′ (SEQ ID NO:108). The levels of expression of β-glucuronidase were used as endogenous controls, since they remain unchanged under experimental conditions. The forward primer 5′-CTCATTTGGAATTTTGCCGATT-3′ (SEQ ID NO:109) and reverse primer 5′-CCGAGTGAAGATCCCCTTTTTA-3′ (SEQ ID NO:110) were used for this gene. Temperature cycling and detection of the SYBR green emission were performed with an ABI 7300 real-time PCR instrument. Data were analyzed with ABI Sequence Detection System, version 1.2. Statistical analysis was performed with the data from six independent experiments. The experiment was performed with Applied Biosystems SYBR Green RT-PCR master mix.

| Compound | Affinity for p300 (in words) (p300) | Affinity for p300 (in words) (p300; listed as HBS peptide 21) | % Helicity [1] | Inhibition of VEGF transcription in cell culture (in words) (MDA-MB-231-HRE-Luc cells) | Inhibition of VEGF transcription in HeLa cells (in words) [2] | % Helicity ([1]; listed as peptide 22) | % Transcription inhibition in cell culture (Luc & RT-PCR) (MDA-MB-231-HRE-Luc cells; luciferase assay and qRT-PCR, 1 μM peptide) |
| --- | --- | --- | --- | --- | --- | --- | --- |
| CC(C)[C@H](NC(=O)[C@H](CCC(=O)O)NC(=O)[C@@H](NC(=O)[C@H](CC(=O)O)NC(=O)[C@H](Cc1ccc(O)cc1)N1CC=CCCC(=O)N[C@@H]([C@@H](C)O)C(=O)N[C@@H](C)C1=O)C(C)C)C(=O)N[C@@H](CC(N)=O)C(=O)N[C@@H](C)C(N)=O [Compound 21] | bound p300 with significant affinities | slightly lower affinity than the parent compound, HBS peptide 20 | 16% | failed to inhibit VEGF transcription in cell culture | – | – | – |
| C[C@H](NC(=O)[C@H](CC(N)=O)NC(=O)[C@H](Cc1ccc(O)cc1)NC(=O)[C@H](CCC(=O)O)NC(=O)[C@H](CS)NC(=O)[C@H](CC(=O)O)NC(=O)[C@H](C)N1CC=CCCC(=O)N[C@@H]([C@@H](C)O)C(=O)N[C@@H](C)C1=O)C(=O)N[C@@H](CCCNC(=N)N)C(N)=O [Compound 22] | better affinity than HBS helices 20 and 21 and peptide 25 | – | 53% | modified sequence; active in cell culture | inhibited VEGF transcription in HeLa cells at levels comparable to those provided by chetomin 2 | approximately 55% | 45 ± 8 (Luc & RT-PCR) % |
